No constants are given. Whether binding was seen depends on the method and setting. In cells and extracts the contact can be indirect. Some results given as binding are weak or reduced against the parent protein; the word gives no strength.
Target: Focal adhesion kinase (FAK), wild-type, re-expressed in FAK-deficient SCC cells (UniProt P34152)
Test: co-IP; FAK immunoprecipitation from SCC FAK-WT cell nuclear extracts, TAF9 detected

Sequences of proteins named here, by UniProt entry; tags and fusion partners are left off.
UniProt P34152: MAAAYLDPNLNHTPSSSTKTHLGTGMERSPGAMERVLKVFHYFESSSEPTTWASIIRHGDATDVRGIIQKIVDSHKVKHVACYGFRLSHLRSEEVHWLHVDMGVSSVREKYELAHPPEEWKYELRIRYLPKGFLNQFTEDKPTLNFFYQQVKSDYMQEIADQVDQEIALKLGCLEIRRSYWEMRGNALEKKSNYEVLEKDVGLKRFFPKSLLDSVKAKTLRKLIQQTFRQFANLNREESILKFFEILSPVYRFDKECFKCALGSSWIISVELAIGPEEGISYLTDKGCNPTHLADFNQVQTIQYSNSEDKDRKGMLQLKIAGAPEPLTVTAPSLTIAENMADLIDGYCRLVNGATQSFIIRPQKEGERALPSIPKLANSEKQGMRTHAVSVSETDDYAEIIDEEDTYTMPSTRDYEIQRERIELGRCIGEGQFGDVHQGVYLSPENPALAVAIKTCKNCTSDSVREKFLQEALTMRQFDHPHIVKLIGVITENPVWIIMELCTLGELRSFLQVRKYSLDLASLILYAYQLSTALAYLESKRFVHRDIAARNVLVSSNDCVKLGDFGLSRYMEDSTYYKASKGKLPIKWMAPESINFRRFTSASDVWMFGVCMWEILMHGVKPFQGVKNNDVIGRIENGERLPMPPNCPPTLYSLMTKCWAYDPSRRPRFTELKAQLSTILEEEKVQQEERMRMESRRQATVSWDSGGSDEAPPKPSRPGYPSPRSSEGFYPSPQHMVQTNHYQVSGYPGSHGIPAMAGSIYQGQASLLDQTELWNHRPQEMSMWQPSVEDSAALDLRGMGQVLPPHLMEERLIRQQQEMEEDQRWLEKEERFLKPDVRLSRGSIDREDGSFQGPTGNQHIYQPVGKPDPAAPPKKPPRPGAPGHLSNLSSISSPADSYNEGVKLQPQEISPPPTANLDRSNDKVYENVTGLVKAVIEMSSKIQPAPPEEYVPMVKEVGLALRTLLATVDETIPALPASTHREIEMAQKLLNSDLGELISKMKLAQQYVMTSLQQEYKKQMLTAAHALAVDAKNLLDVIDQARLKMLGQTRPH

- binding: binds
B1: TAF9, TBP-associated factor, core component of the TFIID complex (protein, UniProt Q8VI33 1-264)
chain: MESGKMASPKSMPKDAQMMAQILKDMGITEYEPRVINQMLEFAFRYVTTILDDAKIYSSHAKKATVDADDVRLAIQCRADQSFTSPPPRDFLLDIARQRNQTPLPLIKPYSGPRLPPDRYCLTAPNYRLKSLQKKAPAPAGRITVPRLSVGSVSSRPSTPTLGTPTPQTMSVSTKVGTPMSLTGQRFTVQMPASQSPAVKASIPATSTVQNVLINPSLIGSKNILITTNMVSQNTAESANALKRKREDDDDDDDDDDDDDYDNM

— publication PMC4597190
